PubChem BioAssay AID1347423 (Functional Genomics Laboratory (NCATS/FGL), 2020)
Hit rate of the full screen: of about 52,000 sequences, about 210 (0.4%) were called active.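 The calls were made as follows: active = gene whose silencing raises cell survival under the drug, median off-target-corrected z-score across its silencing RNAs 2 or more; inactive = the rest.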 Some of the results follow.

Assay: Resistance to Poly (ADP-Ribose) Polymerase inhibitor: Gene Identification via Genome-wide siRNA Screen
Settings: mouse BRCA2 R2336H ES cells, olaparib, CellTiter-Glo viability; hits give high values
Summary of the method: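 Mouse BRCA2 R2336H ES cells were reverse-transfected with siRNA (20 nM final), treated at 48 h with 500 nM olaparib, and read by CellTiter-Glo after 72 h. Scores: MAD-based z per siRNA, median per gene, seed off-target correction.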

Which z-score does the source give for “GUGACUCCAGUCGUGUCUATT against 2310021H06Rik” here?
Its z-score is inactive: 1.4.

Which z-score does the source give for GGCAUUUCUUUCACUAGCUTT against Olfr618 here?
Its z-score is inactive: 1.6.

For GGUCUGAACAGAAGAUUUGTT against Pdlim1, which z-score is on record?
The z-score was inactive: 0.253.

Which z-score does the source give for GGUUAAUAAUGCGACAGCATT against A2bp1 here?
Its z-score is inactive: 1.27.

For GGCGCAUUACCAGAGCUUCTT against Tnpo2, which z-score is on record?
Its z-score is inactive: 1.15.

With GCCGCUGGUUCAUUAUCACTT against Tbx2 as the sequence, how does the z-score read?
The z-score was inactive: 0.502.

Which z-score does the source give for GGUCUUCAUAUUUCUUGCUTT against Olfr10 here?
Its z-score is inactive: 3.1.

With GGCAAUAUGUCGUAUGUAATT against Sfmbt2 as the sequence, how does the z-score read?
Its z-score is inactive: 0.359.

For GGACCUCACAAUGAGUAUGTT against Thtpa, which z-score is on record?
Its z-score is inactive: -0.87.

For GCAAUUCUGUGUUCAUCCGTT against Phex, which z-score is on record?
The z-score was inactive: 0.825.

With “GGGAUGGGAUAGGGACAUATT against A330090H18” as the sequence, how does the z-score read?
The z-score was inactive: -0.744.

With GGGAUGGUGAUGGUGAAAGTT against Qprt as the sequence, how does the z-score read?
The z-score was inactive: -1.68.

For “GGCCCUUCUGGACUAUCAUTT against 4932423M01Rik”, which z-score is on record?
Its z-score is inactive: 0.644.

For “GGAAGUAGAAGUGAGUGAATT against 2700088M22Rik”, which z-score is on record?
Its z-score is inactive: 0.212.

Which z-score does the source give for GGUUAACGAUGAAGAUGUATT against Rab23 here?
Its z-score is inactive: -1.71.

For GGCUGAAAUUGACAAGUUGTT against Ing4, which z-score is on record?
Its z-score is inactive: 0.534.

Which z-score does the source give for CCUCUCCAGUGUCGACAUUTT against Olfr51 here?
Its z-score is inactive: 0.558.

For CCCAUGCUUAUUACCGAGATT against Rab37, which z-score is on record?
The z-score was inactive: 0.67.

With “GCUCCAUCAGCAAUACAAATT against D4Ertd478e” as the sequence, how does the z-score read?
Its z-score is inactive: -1.61.

For “GCCUAUCACAUCUUAUCUGTT against 4930503B20Rik”, which z-score is on record?
Its z-score is inactive: 0.16.

With “GGCUUUCCAGUGGAAUUCCTT against 2700022J23Rik” as the sequence, how does the z-score read?
The z-score was inactive: 1.65.

Which z-score does the source give for GCCUAAGACCAACUGGCAATT against Theg here?
The z-score was inactive: -1.01.

Which z-score does the source give for GCCUUUGCGCAAAAUGGUCTT against MGC67181 here?
The z-score was inactive: 0.541.

With GGAGGGCAUGGAGAACAUGTT against Pkn3 as the sequence, how does the z-score read?
The z-score was inactive: 0.25.

Which z-score does the source give for CCAAAGCCAGCAAAUAAACTT against Scnn1g here?
Its z-score is inactive: 0.673.

Which z-score does the source give for GGUGGAACCUAUGUACUUUTT against Cygb here?
The z-score was inactive: 0.92.

With GGACGAAAUCUUGUCUGAUTT against Apg4b as the sequence, how does the z-score read?
Its z-score is inactive: -1.48.

With GGAAGAGGAGGAGCUGAUGTT against Speer4f as the sequence, how does the z-score read?
The z-score was inactive: 1.26.

For GGUUCUGAAAGCAAACAAATT against Fgf18, which z-score is on record?
Its z-score is inactive: 1.19.

With GCUUCACUCCACCUUUCAGTT against Prkcc as the sequence, how does the z-score read?
Its z-score is inactive: 0.37.

For CCCUAGCUAUCAAGAUAUUTT against Hace1, which z-score is on record?
The z-score was inactive: 1.13.

With GGACCUAAAGAUUAUCUUATT against Rgs4 as the sequence, how does the z-score read?
The z-score was inactive: 1.35.

With GGAUGCAAUCGACAUGGAGTT against Atp5f1 as the sequence, how does the z-score read?
The z-score was inactive: -0.289.

With “CAGCGGCCGCGCUUCACCGTT against 4930404N11Rik” as the sequence, how does the z-score read?
The z-score was inactive: 0.693.

With GCAGAUCGCAAAAGAUCCUTT against Nppa as the sequence, how does the z-score read?
Its z-score is inactive: -0.265.

Which z-score does the source give for “GGGCUUCACCCUCAUACAATT against A530088H08Rik” here?
The z-score was inactive: 0.845.

For GGGUCGAUUGUCAAUAUCATT against Pecr, which z-score is on record?
Its z-score is inactive: 0.631.

For GGAAUGAAAGUUCCACUAUTT against Emcn, which z-score is on record?
Its z-score is inactive: 0.651.

With GCAAAUCGGCCAAGAGAUGTT against Vti1a as the sequence, how does the z-score read?
Its z-score is inactive: -0.00161.

Which z-score does the source give for GGAAGCCAUCAUGAAAAUGTT against Tex27 here?
Its z-score is inactive: 0.472.

Which z-score does the source give for GCCCGGAAUAUAUAGCCCUTT against Hdac10 here?
The z-score was inactive: -0.274.

Which z-score does the source give for GGGAAGUUGUCCUUGAAGATT against Cd36 here?
Its z-score is inactive: -1.63.

For GCAAGAUCAAACCUUAGUGTT against Pbsn, which z-score is on record?
Its z-score is inactive: -0.897.

Which z-score does the source give for CCUUAUACCAUAGAGAACATT against Bfar here?
Its z-score is inactive: -1.03.

Which z-score does the source give for GGACAAAGUUGUUCCUUCUTT against Zfp13 here?
The z-score was inactive: -0.292.

For CGUUGCUGUUGUGGUCUUGTT against Olfr1232, which z-score is on record?
Its z-score is inactive: -1.78.

Which z-score does the source give for GGCCCUACCCAUUCAUUCUTT against Asb6 here?
The z-score was inactive: -0.251.

With GGAUAGGAAAAAAUCACCATT against Prpf4b as the sequence, how does the z-score read?
Its z-score is inactive: -2.75.

With GGACAGAUACGUUAUCAAGTT against Il3 as the sequence, how does the z-score read?
Its z-score is inactive: 0.441.

Which z-score does the source give for GGGAACCUAUUGAUAAUCUTT against Rnpc2 here?
Its z-score is inactive: 0.199.

With GGUGUUCGGUGUCCUGGAATT against Pctp as the sequence, how does the z-score read?
Its z-score is inactive: -1.75.

With GGAGUUGCUUGAUUUUAAATT against Pdk1 as the sequence, how does the z-score read?
Its z-score is inactive: -0.0168.

With “GCUCCUUAGACUCCACUCATT against 4930535E21Rik” as the sequence, how does the z-score read?
The z-score was inactive: 0.186.

Which z-score does the source give for CCUGAGUAUUAAAGUUUAGTT against Whsc2 here?
Its z-score is inactive: 0.397.

With CGUGGUGAGAUCAUAAAACTT against Bbox1 as the sequence, how does the z-score read?
Its z-score is inactive: 0.341.

Which z-score does the source give for GGAUAUCCUACAGUUCUGGTT against Krt2-5 here?
The z-score was inactive: -0.652.

With GGAAGUUUGUGUCUGAUGUTT against P2y5 as the sequence, how does the z-score read?
The z-score was inactive: -0.121.

For CCCAGUUUAGAUUGGUCAATT against Igfbp5, which z-score is on record?
The z-score was inactive: 1.62.

For “GGAGAUGCCAAAGUUAUGATT against 2610528E23Rik”, which z-score is on record?
The z-score was inactive: 0.657.

For CCUUUUGAAACGUACAGCGTT against Admr, which z-score is on record?
The z-score was inactive: 0.358.

With GGCCUGAACUUUUUAUUGATT against Olfr533 as the sequence, how does the z-score read?
Its z-score is inactive: -0.108.

For GGGAUAAUAAUGUUGAUUGTT against Mrc1, which z-score is on record?
The z-score was inactive: 2.08.

For “GGGAAGAAAUAUGUUAGAUTT against 2610319K07Rik”, which z-score is on record?
The z-score was inactive: -0.818.

With CGUGUAAGUUUUGAUUCUATT against Calr as the sequence, how does the z-score read?
Its z-score is inactive: 0.0672.

For GCCUACAGCUCUUUACACATT against Gpr89, which z-score is on record?
The z-score was inactive: 0.356.

Which z-score does the source give for GGUGACAAAGGUGUUAGAATT against Itpkc here?
Its z-score is inactive: 0.491.

Which z-score does the source give for “GGUUCUUGUGUUCAGAUGGTT against 6030422M02Rik” here?
The z-score was inactive: -0.109.
